Here are results for nine sequences from article PMC6480920.

Sequences of proteins named here, by UniProt entry; tags and fusion partners are left off. Residues count along the entry.
UniProt Q15366, whole entry: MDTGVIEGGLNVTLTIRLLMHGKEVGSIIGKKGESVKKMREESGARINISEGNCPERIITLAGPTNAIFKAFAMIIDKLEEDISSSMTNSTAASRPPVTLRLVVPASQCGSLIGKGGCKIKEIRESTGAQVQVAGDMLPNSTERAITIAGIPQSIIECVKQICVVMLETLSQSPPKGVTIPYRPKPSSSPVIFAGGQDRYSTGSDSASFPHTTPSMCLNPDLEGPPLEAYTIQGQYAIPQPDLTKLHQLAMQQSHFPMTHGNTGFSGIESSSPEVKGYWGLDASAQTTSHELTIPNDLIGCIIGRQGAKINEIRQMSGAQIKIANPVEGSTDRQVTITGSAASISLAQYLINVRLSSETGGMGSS
UniProt P02769, 25-607: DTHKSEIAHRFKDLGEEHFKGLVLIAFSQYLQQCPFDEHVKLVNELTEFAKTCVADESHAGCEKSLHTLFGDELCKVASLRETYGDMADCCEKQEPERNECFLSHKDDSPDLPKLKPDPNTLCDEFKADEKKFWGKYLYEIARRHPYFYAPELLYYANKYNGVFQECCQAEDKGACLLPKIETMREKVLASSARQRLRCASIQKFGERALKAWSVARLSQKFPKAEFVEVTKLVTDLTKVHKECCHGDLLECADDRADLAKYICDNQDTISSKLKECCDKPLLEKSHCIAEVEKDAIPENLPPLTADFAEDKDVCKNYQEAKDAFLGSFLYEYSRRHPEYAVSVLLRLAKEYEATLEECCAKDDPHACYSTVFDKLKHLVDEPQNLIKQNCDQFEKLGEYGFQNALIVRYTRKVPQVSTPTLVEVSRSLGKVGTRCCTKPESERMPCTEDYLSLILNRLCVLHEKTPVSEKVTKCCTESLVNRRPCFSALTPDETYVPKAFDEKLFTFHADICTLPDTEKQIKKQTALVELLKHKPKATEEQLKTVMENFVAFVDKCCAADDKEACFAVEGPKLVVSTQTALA

For at least one entry, the source does not settle the construct or the ends of the probe. For part of these data: The comparison behind a weaker result is the experiment's own reference, which may not be listed here. At least one verdict rests on a figure or table, not on a statement of the authors.

The first series addresses PCBP-2 (poly(C)-binding protein 2) (UniProt Q15366). The series is described as follows: colorimetric ELONA. Particulars: Kd in range 9.9-109.5 nM, value in figure, similar to qPCR read-out; recombinant protein; protein details: N-terminal 6xHis; label: 3' digoxigenin; single-stranded DNA. Background: Real-time PCR tracks product formation cycle by cycle.
For “GCGGATCCAGACTGGTGTACTGGGCTAGTTGCCTCTGCAGATTAGATGATGACAGTGGCCCTAAAGACAAGCTTC [05DS10-02-DIG]”, the binding result is given as “binds”.

The series is the same for the next values; noted with them: Kd in range 9.9-109.5 nM, value in figure; recombinant protein; protein details: N-terminal 6xHis; label: 3' digoxigenin; single-stranded DNA.
As for “GCGGATCCAGACTGGTGTACCTGTTAGCAAGAGTTTATTATGTAAAGATATCCGTTGGGCCCTAAAGACAAGCTTC [05DS10-05-DIG]”, the binding result is on record as “binds”.

On to “GCGGATCCAGACTGGTGTCAATGGTACTCTTCATTGTAGTCGCTTTGTTTATTAGCCGGCCCTAAAGACAAGCTTC [05DS10-22-DIG]”, for which the binding result is “binds”.

Take “GCGGATCCAGACTGGTGTCCTATCTATAATTTTGCAGTCCACGTTTCTCTTGTGTGTGCCCTAAAGACAAGCTTC [05DS10-18-DIG]”: the binding result is listed as “binds”.

As to “GCGGATCCAGACTGGTGTGCACAGCACATGCATTACTGCGGTAATCCGTGTCCTTTGTGCCCTAAAGACAAGCTTC [05DS10-01-DIG]”, the binding result was “binds”.

“GCGGATCCAGACTGGTGTGCAGGTATGCCGGATCATGTCGTGAAAGTATCCATTTCTCGCCCTAAAGACAAGCTTC [05DS10-12-DIG]”: the binding result was “binds”.

In the case of “GCGGATCCAGACTGGTGTGGAGGTTAGCCGAAACACGTATACGCGTATTTATCCTCGGGCCCTAAAGACAAGCTTC [05DS10-21-DIG]”, the binding result is reported as “binds”.

On to “GCGGATCCAGACTGGTGTGGGAATGTTGTTTATGTATTTGTTCTGAGCTCTACCTTTGCCCTAAAGACAAGCTTC [05DS10-26-DIG]”, for which the binding result is “binds”.

The next series has as its target BSA (UniProt P02769). The series is described as follows: ELONA-RTqPCR. Particulars: high specificity for PCBP-2 over BSA, 100 nM RNA; commercial protein.
Regarding “GGGGCGGAUCCAGACUGGUGUACACGGUGUUUAGUAGUUUAAUGAAUCUUUUAGUUCUUGGGCCCUAAAGACAAGCUUC [05RS10-09]”, the binding result is reported as “binds more weakly”.
